Results are given in words; binding and its absence hold for the method and conditions named. Binding seen in cells or lysates may run through a third protein. These calls come from enrichment with a bait or labelling near it, and not all partners need be listed. For some assays here: Sequences can lack the tags named with a protein.

Protein sequences, listed by entry. Tags and fused reporters are not part of them.
UniProt P06748: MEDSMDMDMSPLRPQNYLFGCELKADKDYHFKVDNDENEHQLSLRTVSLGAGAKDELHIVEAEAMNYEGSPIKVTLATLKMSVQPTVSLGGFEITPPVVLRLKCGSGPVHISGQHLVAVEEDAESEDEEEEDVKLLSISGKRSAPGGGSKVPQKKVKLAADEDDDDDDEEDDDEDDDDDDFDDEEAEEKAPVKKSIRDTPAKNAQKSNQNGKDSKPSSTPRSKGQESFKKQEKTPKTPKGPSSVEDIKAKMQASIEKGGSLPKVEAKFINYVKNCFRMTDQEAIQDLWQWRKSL

Assay [1] addresses T1, Heme oxygenase-1 (HO-1), endogenous, induced by Hemin in HUVECs (human (endogenous in HUVECs)) (UniProt P09601).
T1 sequence: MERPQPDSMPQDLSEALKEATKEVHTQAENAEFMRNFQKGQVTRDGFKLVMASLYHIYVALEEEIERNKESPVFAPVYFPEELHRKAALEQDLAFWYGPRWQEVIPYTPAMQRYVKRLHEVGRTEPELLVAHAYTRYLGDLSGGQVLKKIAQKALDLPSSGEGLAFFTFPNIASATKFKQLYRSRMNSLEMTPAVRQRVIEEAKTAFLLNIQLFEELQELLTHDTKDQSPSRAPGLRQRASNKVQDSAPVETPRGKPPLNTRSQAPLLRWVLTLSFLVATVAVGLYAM
Nature of the assay: affinity purification with mass spectrometry; nuclear proteins of HUVECs transfected with ΔHO-1 or treated with Hemin; HO-1 antibody overnight at 4 °C, protein A/G beads 4 h at 4 °C, washes with 150-500 mM NaCl.

In assay [2] the target is T2, ΔHO-1, truncated heme oxygenase-1 without transmembrane segment (aa1-266), with a Flag tag (UniProt P09601).
T2 sequence: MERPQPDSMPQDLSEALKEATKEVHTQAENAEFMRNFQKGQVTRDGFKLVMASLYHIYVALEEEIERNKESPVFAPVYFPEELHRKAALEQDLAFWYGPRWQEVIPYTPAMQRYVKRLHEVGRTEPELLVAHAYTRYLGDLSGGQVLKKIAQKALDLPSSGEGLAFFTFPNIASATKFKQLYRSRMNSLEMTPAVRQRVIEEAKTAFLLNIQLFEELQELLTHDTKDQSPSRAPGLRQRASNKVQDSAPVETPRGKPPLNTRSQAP
Described as above.

Regarding “Nucleophosmin (NPM1), endogenous in HUVECs (from UniProt P06748 1-294)”, the binding entry in assay [1] and in assay [2] was “binds” throughout.

For the origin of these results see publication PMC8313700.
